In PMC7049960:

Molecular target: T1, ATF4 bZIP TAP construct (mouse) (UniProt Q06507)
T1 sequence: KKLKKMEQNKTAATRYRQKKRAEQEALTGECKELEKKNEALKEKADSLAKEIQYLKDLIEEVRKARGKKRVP
Test: affinity purification with mass spectrometry; tandem affinity purification of the FLAG- and S-tagged ATF4 bZIP domain expressed in mouse TA muscle fibers in vivo (16 mice, 7 days after transfection); pooled muscle extracts, anti-FLAG magnetic beads, elution with 3X-FLAG peptide, then S-protein agarose; 50 mM HEPES pH 7.0, 150 mM NaCl, 5 mM MgCl2, 2 mM EGTA, 0.1-0.5% Triton X-100, 4 °C; LC-MS/MS; two independent experiments; empty TAP construct as control

| Substance | binding |
| --- | --- |
| MAF/c-Maf (from UniProt P54843-1 1-370) | binds |
| C/EBPα (from UniProt P53566-1 1-359) | binds |

Results are given in words; binding and its absence hold for the method and conditions named. In cells and extracts the contact can be indirect. Here binding means that the protein was enriched with, or labelled near, the bait; the list need not be complete.
